## Primary screen of a compound library

Values are the deposited “Percent Effect”, in %.
The controls that fix the scale are not given in the record; negative values are as filed.
The compounds are a random part of those screened.
Two or more numbers in one place are separate tests of the same structure; such repeats can differ widely.

A: 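Whole-cell growth test on Mycobacterium tuberculosis, read after 4 days in a medium based on cholesterol and the lipid DPPC; the read-out is not stated. Compounds at 50 µM. The record gives no direction; compounds that gave an IC50 in retests scored well above the rest, so higher reads as more growth inhibition. Size under these conditions: about 69,000 compounds, about 370 of them at 50% or above in at least one test.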
B: 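Growth of Mycobacterium tuberculosis over 3 days (7H9 medium with glucose and tyloxapol); the read-out is not stated. Compounds at 50 µM. The record gives no direction; compounds that gave an IC50 in retests scored well above the rest, so higher reads as more growth inhibition. About 69,000 compounds were tested under these conditions; 1.1% (about 760) showed 50% or more at least once.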

SMILES: O=C(O)C(F)(F)F.[H][C@@]12OCCN(C(=O)C3CCOCC3)[C@@]1([H])CC[C@H]2Oc1ccccn1
A: -39.14 & -23.6
B: -34.56

SMILES: CCN(CC)CCNC(=O)c1cc(OC)c2ccoc2c1
A: 20.95
B: 18.91

SMILES: OC1CCN(Cc2ccc(CNc3ncc(Cl)cc3F)cc2)CC1
A: 16.36
B: 30.39 & 18.79

SMILES: [H][C@@]12C[C@H](C(=O)N3CCCC3)[C@@]([H])(CN(C(=O)NCc3ccccc3)C1)O2
A: 0.5984
B: 16.46

SMILES: Oc1ccccc1CN1CCCCCC1c1cccs1 (stereo not shown)
A: 0.008624
B: 4.686

SMILES: CNC(=O)NC(=O)C(C)N(C)CCCc1cc(-c2ccccc2)no1 (stereo not shown)
A: 27.36
B: 0.5212

SMILES: CC(C)N1CCOC[C@H]1c1nc(C(C)(C)C)c[nH]1
A: -24.08
B: -5.483 & -30.25

SMILES: Cc1ccc(NC(=O)N(CCO)CCO)c(OCc2ccccc2)c1
A: -20.62
B: 8.026 & 6.258

SMILES: COC(=O)CCC(=O)NCc1cccnc1N1CCc2ccccc2C1
A: -9.798 & -17.58
B: -15.97

SMILES: CC(C)Nc1nc(C(=O)Nc2ccccn2)cs1
A: 25.64
B: 14.92 & 0.9034

SMILES: COCc1ccccc1CNC(=O)CNc1ccccc1C(C)=O
A: 6.359
B: -12.01

SMILES: CC(NC(=O)Nc1ccc(S(C)(=O)=O)cc1)c1ccc2c(c1)CC(=O)N2 (stereo not shown)
A: 3.627 & -5.85
B: -0.2351

SMILES: CCn1nc(C)c(CNC(=O)NCC(C)(O)c2ccco2)c1C (stereo not shown)
A: -4.768
B: -8.064 & -2.528

SMILES: CCC[C@@H]1CN(C(=O)c2c(F)ccc(OC)c2F)C[C@H]1C(=O)O
A: -18.98
B: -5.988

SMILES: Cc1ccc(-c2nc(CN3CCCC(Cn4cncn4)C3)cs2)o1 (stereo not shown)
A: 12.01
B: 46.66

SMILES: COc1ccc(OC)c(S(=O)(=O)NC(=O)C(C)OC)c1 (stereo not shown)
A: 9.885
B: 5.873 & 7.189

SMILES: CC(C(=O)NCc1ccc(N2CCCCCC2)nc1)S(C)(=O)=O (stereo not shown)
A: -14.75
B: 16.08

SMILES: CN(CCc1ccccn1)c1cnn(C)c(=O)c1Br
A: 0.7263
B: 9.1

SMILES: Cc1ccnn1CCC(=O)N1C[C@@H](O)[C@H](Oc2cccc(F)c2)C1
A: 7.999
B: 39.33

SMILES: Cn1cc(C[C@H]2[C@H](O)CCN2C(=O)C2CCCC2)cn1
A: -14.92 & -15.81
B: 14 & -8.107

SMILES: Cn1ncc2c(N3CCC3)nc(-c3ccncc3)nc21
A: -34.53
B: -15.32

SMILES: N#Cc1cccnc1OC1CCN(S(=O)(=O)c2ccc(F)c(Cl)c2)CC1
A: 3.657
B: 8.038

SMILES: COc1cccc(CSCC(=O)NCc2cccnc2)c1
A: 0.02696
B: 12.05

SMILES: CC(=O)N1CCCN(CC(C)(O)c2cccc(C(F)(F)F)c2)CC1 (stereo not shown)
A: -3.08
B: 31.21

SMILES: Cc1n[nH]cc1CNCC(c1ccsc1)N(C)C (stereo not shown)
A: -2.201
B: -3.445 & 53.05

SMILES: COc1ccc(C(=O)N2CCCC2c2noc(C(C)C)n2)nn1 (stereo not shown)
A: 7.951
B: 21.69

SMILES: CC(C)CNc1nnc(SC(C(=O)NCc2cccnc2)C(C)C)s1 (stereo not shown)
A: -6.6
B: -17.69 & 4.111

SMILES: CCOCc1ncn2c1CN(C(=O)Nc1ccc(CC)cc1)CC2
A: -26.16
B: -11.5

SMILES: COc1ccc(CCNC(=O)C2CC2)c(Cl)c1
A: 25.49 & 21.74
B: 30.87

SMILES: CCCn1[nH]cc/c1=N\C(=O)CN1CCOC(Cn2cc(C)cn2)C1 (stereo not shown)
A: -2.603
B: 12.5

SMILES: O=C(c1cncc(Br)c1)N1CCC(O)(Cn2ccc3ccncc32)CC1
A: -4.94
B: -9.948

SMILES: COc1ccccc1C1SCC(=O)Nc2n[nH]cc21 (stereo not shown)
A: -3.654
B: 1.7 & 33.83

SMILES: CCCC1C=CCN1C(=O)c1cc(COc2ccccc2)[nH]n1 (stereo not shown)
A: -8.515
B: 7.594 & 3.563

SMILES: CCc1ccc(NC(=O)Nc2c(O)oc3ccccc3c2=O)cc1
A: -14.18
B: -10.23

SMILES: CN(C)C(=O)C1CCCN1c1ncnc2ccsc12 (stereo not shown)
A: -5.101
B: -6.535 & -2.256

SMILES: CCc1nccn1-c1nccnc1C1CCCN(C(=O)COC)C1 (stereo not shown)
A: -13.18
B: -27.02

SMILES: Cc1ccc(NC(=O)NC(C)Cn2cccn2)cc1 (stereo not shown)
A: -18.25
B: 12.1

SMILES: CCN(CC)S(=O)(=O)CC(=O)N1CCc2ccc(Cl)cc21
A: -5.464
B: 6.958

SMILES: CN(CC1(O)CCN(c2ccccn2)C1)C(=O)Cc1ccsc1 (stereo not shown)
A: -9.32
B: -6.95

SMILES: COCCN(CC1CCCO1)C(=O)CCNC(=O)c1ccccc1F (stereo not shown)
A: -13.05
B: -12.14

SMILES: COc1ccc(OCCN(C)Cc2nc3c(cnn3C)c(=O)[nH]2)cc1
A: 7.982
B: 7.324

The last 4 entries again:

* CCN(CC)S(=O)(=O)CC(=O)N1CCc2ccc(Cl)cc21 | A: -5.464%; B: 6.958%
* CN(CC1(O)CCN(c2ccccn2)C1)C(=O)Cc1ccsc1 (stereo not shown) | A: -9.32%; B: -6.95%
* COCCN(CC1CCCO1)C(=O)CCNC(=O)c1ccccc1F (stereo not shown) | A: -13.05%; B: -12.14%
* COc1ccc(OCCN(C)Cc2nc3c(cnn3C)c(=O)[nH]2)cc1 | A: 7.982%; B: 7.324%

From ChEMBL document CHEMBL3988442, “University of Dundee, Small-Polar-MMV Screening Library” (2021).